In publication PMC6579518:
No constants are given. Whether binding was seen depends on the method and setting. For some of these results: In cells and extracts the contact can be indirect. Some results given as binding are weak or reduced against the parent protein; the word gives no strength. For some of these results: Tags and fused reporters may be left off the sequences shown.

Sequences of proteins named here, by UniProt entry; tags and fusion partners are left off.
UniProt Q12522: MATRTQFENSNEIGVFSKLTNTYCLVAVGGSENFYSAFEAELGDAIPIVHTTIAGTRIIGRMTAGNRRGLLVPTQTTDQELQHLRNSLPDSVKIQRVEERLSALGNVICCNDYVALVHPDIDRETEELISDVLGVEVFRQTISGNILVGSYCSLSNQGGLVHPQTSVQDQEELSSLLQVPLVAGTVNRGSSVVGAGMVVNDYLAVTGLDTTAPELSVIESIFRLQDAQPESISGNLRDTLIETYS

T1: Lsg1-TAP (tandem affinity purification-tagged GTPase Lsg1) (S. cerevisiae) (UniProt P53145)
T1 sequence: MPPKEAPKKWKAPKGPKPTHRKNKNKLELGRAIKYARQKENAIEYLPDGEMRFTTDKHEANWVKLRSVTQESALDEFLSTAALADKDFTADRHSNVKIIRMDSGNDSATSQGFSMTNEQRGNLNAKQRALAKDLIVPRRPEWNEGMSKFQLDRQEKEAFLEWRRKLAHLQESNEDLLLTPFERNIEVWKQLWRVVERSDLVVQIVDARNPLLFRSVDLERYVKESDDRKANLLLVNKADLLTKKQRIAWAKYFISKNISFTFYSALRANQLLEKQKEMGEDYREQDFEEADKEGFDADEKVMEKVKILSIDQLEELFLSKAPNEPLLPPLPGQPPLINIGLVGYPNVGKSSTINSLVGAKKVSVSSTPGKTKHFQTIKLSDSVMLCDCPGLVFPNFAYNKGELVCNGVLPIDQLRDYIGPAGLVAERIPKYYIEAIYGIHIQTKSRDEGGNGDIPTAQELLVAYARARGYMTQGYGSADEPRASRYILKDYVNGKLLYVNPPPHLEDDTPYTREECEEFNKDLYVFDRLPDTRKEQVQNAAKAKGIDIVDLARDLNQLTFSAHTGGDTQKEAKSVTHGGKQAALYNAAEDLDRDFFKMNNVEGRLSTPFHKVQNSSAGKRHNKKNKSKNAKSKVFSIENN

T2: Arx1 (S. cerevisiae (endogenous in the Lsg1-TAP strain)) (UniProt Q03862)
T2 sequence: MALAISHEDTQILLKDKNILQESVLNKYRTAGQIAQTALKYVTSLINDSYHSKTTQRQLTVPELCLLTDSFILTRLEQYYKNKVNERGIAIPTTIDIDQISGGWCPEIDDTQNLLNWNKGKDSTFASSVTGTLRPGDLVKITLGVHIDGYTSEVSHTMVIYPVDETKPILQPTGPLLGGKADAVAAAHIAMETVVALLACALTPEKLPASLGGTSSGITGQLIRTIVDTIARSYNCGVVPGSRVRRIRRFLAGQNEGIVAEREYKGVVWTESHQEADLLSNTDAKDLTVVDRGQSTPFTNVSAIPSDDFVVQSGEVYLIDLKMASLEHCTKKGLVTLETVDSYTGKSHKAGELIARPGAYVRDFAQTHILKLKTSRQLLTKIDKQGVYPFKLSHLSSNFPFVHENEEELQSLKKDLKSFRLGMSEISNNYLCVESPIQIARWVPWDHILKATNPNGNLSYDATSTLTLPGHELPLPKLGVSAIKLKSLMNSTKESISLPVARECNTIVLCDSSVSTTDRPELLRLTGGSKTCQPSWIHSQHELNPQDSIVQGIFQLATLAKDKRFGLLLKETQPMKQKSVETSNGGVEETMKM

T3: Rei1 (S. cerevisiae (endogenous in the Lsg1-TAP strain)) (UniProt P38344)
T3 sequence: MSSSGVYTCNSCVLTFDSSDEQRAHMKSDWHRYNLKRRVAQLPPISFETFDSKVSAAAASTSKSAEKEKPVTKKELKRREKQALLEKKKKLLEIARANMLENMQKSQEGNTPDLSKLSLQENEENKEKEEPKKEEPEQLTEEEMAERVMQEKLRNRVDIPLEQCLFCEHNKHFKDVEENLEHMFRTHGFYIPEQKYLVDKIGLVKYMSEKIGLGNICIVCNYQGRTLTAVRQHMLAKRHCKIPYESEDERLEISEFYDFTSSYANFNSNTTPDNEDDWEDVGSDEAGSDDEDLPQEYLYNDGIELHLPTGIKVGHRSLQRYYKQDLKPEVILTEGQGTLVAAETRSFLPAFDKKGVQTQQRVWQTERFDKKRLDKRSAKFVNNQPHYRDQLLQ

T4: Arx1 (S. cerevisiae (endogenous in the Lsg1-TAP strain)), Q03862
T4 chain: T2 sequence

B1: Nmd3 (nuclear export adaptor) (protein, UniProt P38861 1-518)
chain: MEFTPIDPHQHQNAATLLCCNCGTPIDGSTGLVMCYDCIKLTVDITQGIPREANISFCRNCERFLQPPGQWIRAELESRELLAICLRRLKGLTKVRLVDASFIWTEPHSRRIRIKLTVQGEAMTNTIIQQTFEVEYIVIAMQCPDCARSYTTNTWRATVQIRQKVPHKRTFLFLEQLILKHNAHVDTISISEAKDGLDFFYAQKNHAVKMIDFLNAVVPIKHKKSEELISQDTHTGASTYKFSYSVEIVPICKDDLVVLPKKLAKSMGNISQFVLCSKISNTVQFMDPTTLQTADLSPSVYWRAPFNALADVTQLVEFIVLDVDSTGISRGNRVLADITVARTSDLGVNDQVYYVRSHLGGICHAGDSVMGYFIANSNYNSDLFDGLNIDYVPDVVLVKKLYQRKSKKSRHWKLKRMAKEHKDIDASLDYNSRAQKQEMERAEKDYELFLQELEEDAELRQSVNLYKNREANVPPEEHEMDEDEDEDAPQINIDELLDELDEMTLEDGVENTPVESQQ
B2: Rei1 (protein, UniProt P38344 1-393)
chain: T3 sequence
B3: Reh1 (protein, UniProt Q06709 1-432)
chain: MSSTFFTCNCCVIQFKTSDLQRYHMKTEWHRYNLKRRIANLPPIGAEQFAEKLQISEKEQAENQVDEFGFPVLKPVMNQSNALPQKQKKPIKSKRGRKVGTNLLKRKDRDIAKEKQNRSVSPSGSISSQLSNLTVGTENTNTDYGEDTVSEYGFTSDSNYEYATSDEELDIADKPSDKENEKITITECIYCGKDNKEVERNVKHMFSEHGLFIPERSYLIDLNGLLEFLIKMIVIDHNCLCCNFHGSGLESIRAHMASKRHCRLPYETKEERQLFAPFYDFTYDDHSISKNLQNDRAITSKLSSVYGAKNDEEDGEVDITLVSSENDINANYTTVSIDESGLELTLPTGARLGHRAGQRYYRQNLPSQPNPNESRRTITAADRRMVSGVTEKQYKKGMKKMQQLEKNAINTQIRREIKRVNFQTHYRDELLQ
B4: Rei1, P38344 1-393 (protein)
chain: T3 sequence
B5: Arx1 (protein, UniProt Q03862 1-593)
chain: T2 sequence
B6: ribosomal protein uL16 (protein, UniProt P41805 1-221)
chain: MARRPARCYRYQKNKPYPKSRYNRAVPDSKIRIYDLGKKKATVDEFPLCVHLVSNELEQLSSEALEAARICANKYMTTVSGRDAFHLRVRVHPFHVLRINKMLSCAGADRLQQGMRGAWGKPHGLAARVDIGQIIFSVRTKDSNKDVVVEGLRRARYKFPGQQKIILSKKWGFTNLDRPEYLKKREAGEVKDDGAFVKFLSKKGSLENNIREFPEYFAAQA

Assays:
[1] = target: T1, Lsg1-TAP (tandem affinity purification-tagged GTPase Lsg1) (S. cerevisiae); assay: pull-down; Lsg1-TAP as bait from cleared S. cerevisiae lysate on rabbit IgG magnetic beads, 4°C, 90 min; washes with LB1 (20 mM HEPES pH 7.5, 10 mM KCl, 2.5 mM MgCl2, 1 mM EGTA) and LB1 with 100 mM NaCl; TEV elution; immunoblotting of purified pre-60S particles against crude extract
[2] = target: T1, Lsg1-TAP (tandem affinity purification-tagged GTPase Lsg1) (S. cerevisiae); assay: cryo-EM structure; native pre-60S particles purified by Lsg1-TAP from S. cerevisiae, 0.5% glutaraldehyde 10 min 4°C, 40 nM on grids; six states (I-VI) by 3D classification, 3.1-3.9 Å
[3] = target: eIF6 (yeast Tif6) (S. cerevisiae (endogenous in the Lsg1-TAP strain)) (UniProt Q12522); assay: as above
[4] = target: T2, Arx1 (S. cerevisiae (endogenous in the Lsg1-TAP strain)); assay: cross-linking; XL-MS: Lsg1-TAP pre-ribosomal particles (tandem affinity purified, BY4741) cross-linked with 1.5 mM DSS d0/d12 in 20 mM HEPES pH 8.3, 5 mM MgCl2; trypsin, LC-MS/MS, xQuest; two biological replicates
[5] = target: T3, Rei1 (S. cerevisiae (endogenous in the Lsg1-TAP strain)); assay: as above
[6] = target: T4, Arx1 (S. cerevisiae (endogenous in the …)); assay: as above; details: remark: other sources report otherwise
[7] = target: T1, Lsg1-TAP (tandem affinity purification-tagged GTPase Lsg1) (S. cerevisiae); assay: as above

Row | Molecule | binding [1] | binding [2] | binding [3] | also measured
1 | eIF6 (yeast Tif6) (from UniProt Q12522 1-245) | binds | – | – | –
2 | B1 | binds | binds | binds | –
3 | B2 | – | binds | binds | –
4 | B3 | – | binds | binds | binding [4]: no binding; binding [5]: no binding
5 | B4 | – | – | – | binding [6]: binds
6 | B5 | binds | – | – | –
7 | B6 | – | – | – | binding [7]: binds
